Results taken from patent US20030026831A1, “Anionic liposomes for delivery of bioactive agents” (priority 2001, published 2003).
At least one structure is not confirmed: it was looked up by name or label, or the drawing left a doubt.

Test system: hippocampal neurons
Test: Endocytosis assays: agents acting on AL-Cy3ON internalization
Assay type: cell-based, rat
Details: for Effect on binding/internalization of AL-Cy3ONs by neurons: 10 minutes pretreatment (0.45 M sucrose, 1 μM FK506, 500 nM RAP, 100 μg/ml heparin or protamine sulfate, 5 μg/ml nocodazole, 10 μg/ml cytochalasin D, 100 nM wortmannin), then AL-Cy3ONs 30 minutes at 37° C.
Method: Endocytosis Assays. The following agents were used to manipulate specific steps of the endocytic cycle: 0.45 M hyperosmolar sucrose (ICN biochemicals), 1 μM FK-506 (Calbiochem), and 100 nM wortmannin, 5 μg/ml nocodazole, 10 μg/ml cytochalasin D, 100 μg/ml heparin and 100 μg/ml protamine sulfate, (all from Sigma-Aldrich). Receptor-associated protein (RAP) was a generous gift from Dr. Guojun Bu (Washington University, St. Louis, Mo.) and was used at a concentration of 500 nM (Bu et al., 1994). Cells were treated with the drugs or RAP for 10 minutes prior to incubation with AL-Cy3ONs for 30 minutes at 37° C. and fixed for imaging.
Confocal Microscopy and Image Analysis. Imaging was performed on a Leica TCS 4D confocal microscope (Deerfield, Ill.) equipped with a Mercury/Xenon lamp and argon/krypton laser. Cells were excited using the 488 nm laser line to detect Oregon Green 488-Transferrin and Alexa488-Dextran, and the emitted fluorescence was collected using a 515 long-pass filter. The 568 nm laser line was used to excite Cy3 and N—Rh-DOPE (LP590 emission). Cells were imaged at a plane midway between the substrate-attached plasma membrane and the top of the cell, such that neuronal nuclei were clearly identifiable. In some cases, the entire volume of the cell was scanned in 0.5 μm increments. Optimal images were obtained by averaging 16 images in the line-scan mode at the same fixed gains for all experiments. All fluorescent images presented in figures were equally contrast enhanced using ADOBE PHOTOSHOP (Adobe, Mountain View, Calif.).

Question: Which “Effect on binding/internalization of AL-Cy3ONs by neurons” value does the source give for C=CC[C@@H]1/C=C(\C)C[C@H](C)C[C@H](OC)[C@H]2O[C@@](O)(C(=O)C(=O)N3CCCC[C@H]3C(=O)O[C@H](/C(C)=C/[C@@H]3CC[C@@H](O)[C@H](OC)C3)[C@H](C)[C@@H](O)CC1=O)[C@H](C)C[C@@H]2OC [FK506] here?
Answer: significantly decreased liposome endocytosis

Question: How did the “Effect on internalization of AL-Cy3ONs by neurons” value (100 nM, increased exposure time (20 minutes) before AL-Cy3ONs) turn out when COC[C@H]1OC(=O)c2coc3c2[C@@]1(C)C1=C(C3=O)[C@@H]2CCC(=O)[C@@]2(C)C[C@H]1OC(C)=O [wortmannin] was run?
Answer: abolished the internalization of liposomes

Question: What about the “Effect on binding/internalization of AL-Cy3ONs by neurons” value of the same compound?
Answer: A low-level of cell-associated Cy3 fluorescence was observed
